The values that follow come from publication PMC4715182, “Structure of a Chaperone-Usher Pilus Reveals the Molecular Basis of Rod Uncoiling” (Cell, 2016).

Results are given in words; binding and its absence hold for the method and conditions named. Some entries that bind do so weakly or less than the wild type. Where a sequence is shown, tags or fusion partners need not be part of it.

The target in experiment [1] is T1, PapDHis (uropathogenic Escherichia coli (UPEC)) (UniProt P15319).
T1 sequence: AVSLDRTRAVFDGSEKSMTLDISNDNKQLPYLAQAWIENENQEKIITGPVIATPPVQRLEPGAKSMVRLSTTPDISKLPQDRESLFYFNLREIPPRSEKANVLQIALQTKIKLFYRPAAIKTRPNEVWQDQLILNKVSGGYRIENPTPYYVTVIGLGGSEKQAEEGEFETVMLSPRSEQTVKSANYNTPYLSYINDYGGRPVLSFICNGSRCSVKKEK
Put plainly: SEC; purified PapDHis:PapA left to polymerize at 20°C for 16 hr at 38 μM; Superdex 200 10/300 increase; donor-strand exchange (DSE) products; both purified.

Experiment [2] has as its target T1, PapDHis (uropathogenic Escherichia coli (UPEC)). The experiment in a line: co-purification (nickel affinity, size exclusion chromatography); PapDHis and PapA co-expressed; periplasmic extract; HisTrap HP then Superdex 75 in 20 mM Tris (pH 7.5), 150 mM NaCl, 4°C; SDS-PAGE.

B1: PapA wild-type (natural protein)
chain: APTIPQGQGKVTFNGTVVDAPCSISQKSADQSIDFGQLSKSFLEAGGVSKPMDLDIELVNCDITAFKGGNGAKKGTVKLAFTGPIVNGHSDELDTNGGTGTAIVVQGAGKNVVFDGSEGDANTLKDGENVLHYTAVVKKSSAVGAAVTEGAFSAVANFNLTYQ
notes: PapA, major P pilus rod subunit of uropathogenic E. coli; Ala1 is the very N terminus in the model; also called major pilus subunit PapA; P pilus rod subunit
As for B1, the binding entry in experiment [1] and in experiment [2] was “binds” in each case.
